Results on two molecules are retold here after US20110053865A1.

Results are given in words; binding and its absence hold for the method and conditions named. A result given as binding can be weak or reduced; the word gives no strength.

This test has as its target marmoset IL-23 (marmoset). Description: inhibition ELISA.

B1: P23IL119A3V16-35GS-81G2V11-GGGC-PEG40 linear (bispecific antibody)
chain: EVQLLESGGGLVQPGGSLRLSCAASGRIFSLPASGNIFNLLTIAWYRQAPGKGRELVATINSGSRTYYADSVKGRFTISRDNSKKTLYLQMNSLRPEDTAVYYCQTSGSGSPNFWGQGTLVTVSSGGGGSGGGGSGGGGSGGGGSGGGGSGGGGSGGGGSEVQLLESGGGLVQPGGSLRLSCAASGLPFSTKSMGWFRQAPGKGREFVSRISPGGTSRYYGDFVKGRFTISRDNSKNTLYLQMNSLRAEDTAVYYCASGERSTYIGSNYYRTNEYDYWGQGTLVTVSSGGGC
modifications: linear mPEG40 (maleimide) on the C-terminal Cys of GGGC
For B1, the binding result is listed as “binds”.

B2: P23IL119A3V16-35GS-81G2V11-HSA (bispecific antibody, not shown: large carriers)
chain: EVQLLESGGGLVQPGGSLRLSCAASGRIFSLPASGNIFNLLTIAWYRQAPGKGRELVATINSGSRTYYADSVKGRFTISRDNSKKTLYLQMNSLRPEDTAVYYCQTSGSGSPNFWGQGTLVTVSSGGGGSGGGGSGGGGSGGGGSGGGGSGGGGSGGGGSEVQLLESGGGLVQPGGSLRLSCAASGLPFSTKSMGWFRQAPGKGREFVSRISPGGTSRYYGDFVKGRFTISRDNSKNTLYLQMNSLRAEDTAVYYCASGERSTYIGSNYYRTNEYDYWGQGTLVTVSS
On to B2, for which the binding result is “binds”.
